In the data set the target is T1, PriL-CTD del381-383 (Saccharomyces cerevisiae) (UniProt P20457).
T1 sequence (looked up): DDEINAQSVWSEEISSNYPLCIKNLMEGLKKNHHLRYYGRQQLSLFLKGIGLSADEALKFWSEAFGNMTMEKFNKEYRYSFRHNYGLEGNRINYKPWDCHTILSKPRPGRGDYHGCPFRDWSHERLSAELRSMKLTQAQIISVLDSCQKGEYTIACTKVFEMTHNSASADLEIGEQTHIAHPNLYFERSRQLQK
Briefly: SPR. Conditions: 0.005% P20, Buffer F: 20 mM HEPES pH 6.8, 150 mM KCl, 1 mM EDTA, 25 C, SPR in buffer F + 0.005% P20, 25 C, recombinant protein, residues 316-512, protein details: N-terminal His6, removed by TEV.

The exact form of at least one protein or probe is not confirmed. Where a protein sequence is shown, tags need not be part of it.

With “ACTTCCATTCTCCTCTCACC (double strand) [dsDNA 20mer (biotin)]”, the Kd (commonly the constant that tells how readily two partners part at equilibrium) (label: 5' biotin on S1) is 168 µM.
As to “ACTTCCATTCTCCTCTCACC [ssDNA 20mer (biotin)]”, the Kd (label: 5' biotin, single-stranded DNA) is 67 µM.

Source of the values: PMC2852410, “Shared Active Site Architecture between the Large Subunit of Eukaryotic Primase and DNA Photolyase”.
